Experimental data as given in the supplement of paper PMC9744312.
Structures can show the parent of a compound that is named as a salt. The list shows a part of the results. Single values of this set are uncertain.

tested on: Peyronie's disease tunica albuginea primary fibroblasts; experiment: inhibition of TGF-beta1-induced alpha-SMA expression (myofibroblast transformation), relative to TGF-beta1-only and untreated controls; higher = stronger inhibition of myofibroblast transformation; details: 10 µM; TGF-beta1 10 ng/mL; 72 h

Compound	inhibition of TGF-beta1-induced alpha-SMA expression
CC(C)(C)CC(C)(C)c1ccc(OCCOCC[N+](C)(C)Cc2ccccc2)cc1 [Benzethonium Chloride]	74.1%
OC(CCN1CCCC1)(c1ccccc1)C1CCCCC1 (stereo not drawn) [Procyclidine HCl]	22.6%
CC(CN(C)C)CN1c2ccccc2CCc2ccccc21 (stereo not drawn) [Trimipramine Maleate]	37.3%
CCS(=O)(=O)N1CCN(c2ccc(Nc3ncc(C(N)=O)c(NC4CC4)n3)cc2)CC1	36.5%
CC(C)C(=O)c1c(C(C)C)nn2ccccc12 [Ibudilast]	69.6%
CC(=O)NC(CC(C)C)C(=O)O (stereo not drawn) [Acetylleucine]	18.8%
C[N+](C)(C)C[C@H](O)CC(=O)[O-] [L-carnitine]	9.45%
CCOC(=O)/C=C(C)/C=C/C=C(C)/C=C/c1c(C)cc(OC)c(C)c1C [Etretinate]	76.4%
CC(C)(C)c1cc(NC(=O)Nc2ccc(-c3cn4c(n3)sc3cc(OCCN5CCOCC5)ccc34)cc2)no1 [Quizartinib (AC220)]	20.6%
O=C(/C=C/c1cccc(S(=O)(=O)Nc2ccccc2)c1)NO [Belinostat (PXD101)]	> 100%
NC[C@H]1O[C@H](O[C@H]2[C@H](O)[C@@H](O[C@H]3O[C@H](CO)[C@@H](O)[C@H](N)[C@H]3O)[C@H](N)C[C@@H]2N)[C@H](N)C[C@@H]1O [Tobramycin]	-11%
NC[C@H]1O[C@H](O[C@H]2[C@H](O)[C@@H](O[C@H]3O[C@H](CO)[C@@H](O)[C@H](N)[C@H]3O)[C@H](N)C[C@@H]2N)[C@H](N)C[C@@H]1O [Tobramycin sulfate]	4.66%
CCN(CCCCOC(=O)c1ccc(OC)c(OC)c1)C(C)Cc1ccc(OC)cc1 (stereo not drawn) [Mebeverine Hydrochloride]	13.5%
CCN(CC)C(=O)C1(c2ccccc2)CC1CN (stereo not drawn) [Milnacipran HCl]	25.1%
Cc1cc(C(C)(C)C)cc(C)c1CC1=NCCN1 [Xylometazoline HCl]	21%
CC#CCn1c(N2CCC[C@@H](N)C2)nc2c1c(=O)n(Cc1nc(C)c3ccccc3n1)c(=O)n2C [Linagliptin]	8.38%
CCN(CC)CCOCCOC(=O)C1(c2ccccc2)CCCC1 [Pentoxyverine Citrate]	13.1%
N[C@H]1CONC1=O [L-Cycloserine]	0.578%
CNC(=O)c1ccc(N2C(=S)N(c3ccc(C#N)c(C(F)(F)F)c3)C(=O)C2(C)C)cc1F [Enzalutamide (MDV3100)]	78.7%
COc1cc2nc(N3CCN(C(=O)C4COc5ccccc5O4)CC3)nc(N)c2cc1OC (stereo not drawn) [Doxazosin Mesylate]	12.7%
Cc1nc(C(=O)NCC(=O)O)c(O)c2ccc(Oc3ccccc3)cc12 [Roxadustat (FG-4592)]	36.6%
[Cl][Mn][Cl] [Manganese chloride]	-0.0824%

A section of the results above, for reference:
Compound	inhibition of TGF-beta1-induced alpha-SMA expression
CC(=O)NC(CC(C)C)C(=O)O (stereo not drawn) [Acetylleucine]	18.8%
C[N+](C)(C)C[C@H](O)CC(=O)[O-] [L-carnitine]	9.45%
CCOC(=O)/C=C(C)/C=C/C=C(C)/C=C/c1c(C)cc(OC)c(C)c1C [Etretinate]	76.4%

(continued)

Compound	inhibition of TGF-beta1-induced alpha-SMA expression
CCCCCCNC(=O)n1cc(F)c(=O)[nH]c1=O [Carmofur]	-50.7%
CCC[C@@H]1C[C@@H](C(=O)N[C@@H]([C@H]2O[C@H](SC)[C@H](OP(=O)(O)O)[C@@H](O)[C@H]2O)[C@H](C)Cl)N(C)C1 [Clindamycin Phosphate]	58.4%
Nc1nc(=O)n([C@@H]2CS[C@H](CO)O2)cc1F [Emtricitabine]	45%
COc1ccc(Cl)cc1C(=O)NCCc1ccc(S(=O)(=O)NC(=O)NC2CCCCC2)cc1 [Glyburide (Glibenclamide)]	7.42%
CC#C[C@]1(O)CC[C@H]2[C@@H]3CCC4=CC(=O)CCC4=C3[C@@H](c3ccc(N(C)C)cc3)C[C@@]21C [Mifepristone]	32.5%
COC(=O)N[C@@H](C)CNc1nccc(-c2cn(C(C)C)nc2-c2cc(Cl)cc(NS(C)(=O)=O)c2F)n1 [Encorafenib (LGX818)]	97.4%
CC[C@@H]1C(=O)N(C)c2cnc(Nc3ccc(C(=O)N[C@H]4CC[C@H](N5CCN(CC6CC6)CC5)CC4)cc3OC)nc2N1C(C)C [Volasertib (BI 6727)]	> 100%
CCn1c(=O)c2c(nc(/C=C/c3ccc(OC)c(OC)c3)n2C)n(CC)c1=O [Istradefylline]	-3.88%
CC1=NN(c2ccc(C)c(C)c2)C(=O)/C1=N\Nc1cccc(-c2cccc(C(=O)O)c2)c1O [Eltrombopag Olamine]	1.68%
CC1=NN(c2ccc(C)c(C)c2)C(=O)/C1=N\Nc1cccc(-c2cccc(C(=O)O)c2)c1O [Eltrombopag]	25.1%
C[C@@H]1C/C=C/C=C/C=C/C=C/[C@H](O[C@@H]2O[C@H](C)[C@@H](O)[C@H](N)[C@@H]2O)C[C@@H]2O[C@](O)(C[C@@H](O)C[C@H]3O[C@@H]3/C=C/C(=O)O1)C[C@H](O)[C@H]2C(=O)O [Natamycin]	9.67%
CC(C(O)c1ccc(O)cc1)N1CCC(Cc2ccccc2)CC1 (stereo not drawn) [Ifenprodil Tartrate]	0.156%
CC(C)[C@H](N)C(=O)OCCOCn1cnc2c(=O)nc(N)[nH]c21 [Valaciclovir HCl]	19.3%
CN1CCN2c3ncccc3Cc3ccccc3C2C1 (stereo not drawn) [Mirtazapine]	35.4%
CC[C@H](NC(=O)[C@H](C)NC)C(=O)N1C[C@@H](O)C[C@H]1Cc1c(-c2[nH]c3cc(F)ccc3c2C[C@@H]2C[C@H](O)CN2C(=O)[C@H](CC)NC(=O)[C@H](C)NC)[nH]c2cc(F)ccc12 [Birinapant]	61.8%
CC(C)(Oc1ccc(Cl)cc1)C(=O)OCCOC(=O)c1cccnc1 [Etofibrate]	-13%
COC(=O)N/N=C/c1c[n+]([O-])c2ccccc2[n+]1[O-] [Carbadox]	16.9%
CN(C(=O)CN(CCO)CC(=O)N(C)C(C)(C)Cc1ccccc1)C(C)(C)Cc1ccccc1 [Oxethazaine]	47.1%
Cc1cc(C)nc(NS(=O)(=O)c2ccc(N)cc2)n1 [Sulfamethazine Sodium Salt]	0.177%
Cc1cc(C)nc(NS(=O)(=O)c2ccc(N)cc2)n1 [Sulfamethazine]	3.9%
CC1(C)O[C@@H]2C[C@H]3[C@@H]4C[C@H](F)C5=CC(=O)C=C[C@]5(C)[C@@]4(F)[C@@H](O)C[C@]3(C)[C@]2(C(=O)CO)O1 [Fluocinolone Acetonide]	41.6%
